Literature values in patent publication US20240158750A1, “STROMA-FREE NK CELL DIFFERENTIATION FROM HUMAN PLURIPOTENT STEM CELLS” (The Children's Medical Center Corporation, priority 2021, published 2024).

Tested on: polycomb repressive complex 2 (PRC2)
Details: PRC2, at 10 μM; cited from earlier work

**Q.** For `O=C(O)c1ccc2c(c1)nc(NC(=O)c1ccccc1)n2CCCc1ccccc1` [BRD9539], which activity remaining is on record?
**A.** Its activity remaining is 43%.
